These are yes or no findings as the source states them, for the method shown. Binding seen in cells or lysates may run through a third protein. Some results given as binding are weak or reduced against the parent protein; the word gives no strength.
Target: Bcl-2 (human (endogenous in PC-3)) (UniProt P10415)
Assay: co-IP; competition in cells: synthetic BH3 peptide (50 g ml-1 as printed) electroporated into PC-3 cells; read out as the loss of Bcl-2 from the anti-Bak immunoprecipitate; only the binder purified

Amino acid sequences for entries named in this document (tags omitted).
UniProt P10415: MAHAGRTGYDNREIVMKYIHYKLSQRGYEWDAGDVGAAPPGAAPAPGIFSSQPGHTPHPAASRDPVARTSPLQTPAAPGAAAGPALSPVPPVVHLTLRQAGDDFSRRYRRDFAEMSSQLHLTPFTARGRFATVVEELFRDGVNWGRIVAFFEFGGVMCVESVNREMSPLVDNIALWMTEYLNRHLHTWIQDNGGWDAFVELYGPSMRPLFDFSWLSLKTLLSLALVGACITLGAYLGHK

Binder | binding
VGRQLAIIGDDINRR (N-terminal acetyl (Ac); C-terminal amide (NH2)) [Peptide derived from the BH3 domain of Bak] | binds
LSESLKRIGDELDSN (N-terminal acetyl (Ac); C-terminal amide (NH2)) [Peptide derived from the BH3 domain of Bax (C62->S)] | binds
